Assay: 19F NMR 5FU release study with N-acetyl-L-cysteine methyl ester
Format: physicochemical
Settings: reaction with N-acetyl cysteine (methyl ester), up to 24 h
Method: Reaction of the model systems with N-acetyl-L-cysteine methyl ester was assessed by ^19F NMR.
Acrylate-5FU conjugate (0.125 M) in d^6-DMSO (0.25 mL) was prepared in an NMR tube. N-Acetyl cysteine methyl ester (1.9 mg, 0.011 mmol) or glutathione (3.4 mg, 0.011 mmol) in d^6-DMSO was prepared. The cysteine/glutathione solution was added to the NMR tube, and the tube was inverted several times. The ^19F NMR was taken immediately for t = 0 measurement. Further measurements were taken at t = 30 min and t = 60 min.

Substance	5FU release observed by 19F NMR
4-Methoxyphenyl (E)-3-(5-Fluoro-2,4-dioxo-3,4-dihydropyrimidin-1(2H)-yl)acrylate [compound 13]	small amount of release after 24 h
(E)-N-(4-((3-Chloro-4-fluorophenyl)amino)-7-methoxyquinazolin-6-yl)-3-(5-fluoro-2,4-dioxo-3,4-dihydropyrimidin-1(2H)-yl)acrylamide [compound 57]	no evidence of 5FU release

Source: PMC10510387, “Targeting Cytotoxic Agents through EGFR-Mediated Covalent Binding and Release” (Journal of Medicinal Chemistry, 2023)
